Experimental data: PubChem BioAssay AID652272 (Drosophila RNAi Screening Center, 2013)

Test: 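Genome-wide knock-down search for components of Hedgehog signalling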 (primary screen)
Cell system: Drosophila clone 8 (Cl8) cells
Knock-down reagent: long dsRNA against Drosophila genes
Measured: 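Plate reader light from a firefly reporter under a ptc promoter fragment that responds to Hedgehog, with Renilla light as transfection reference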
Reading the numbers: firefly Hh reporter signal: higher = more ptc reporter light; Renilla reference signal: higher = more Renilla control light
Hit rule: 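Hit when the z-score averaged over two replicates is under -2 or over +3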
Meaning of the calls: active = hit: reporter lowered or raised; inactive = not a hit
In all, the deposit lists about 21,000 reagents; this is an unselected part of those that have a named target and a result. Over the whole deposit, 503 (2.4%) got an active call. 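Raw plate light values, not normalised; calls rest on replicate z-scores that were not deposited; hits include reporter decreases as well as increases.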 Unmarked entries are inactive. Not given: the amount of reagent, the time to read-out.

COX7B [DRSC10895] — firefly Hh reporter signal, replicate 1 = 1.55e5; Renilla reference signal, replicate 1 = 5840; Renilla reference signal, replicate 2 = 3850
Synd [DRSC15116] — firefly Hh reporter signal, replicate 1 = 6.20e5; firefly Hh reporter signal, replicate 2 = 1.21e5; Renilla reference signal, replicate 1 = 29435; Renilla reference signal, replicate 2 = 4152
Nil [DRSC15953] — firefly Hh reporter signal, replicate 1 = 6.37e5; firefly Hh reporter signal, replicate 2 = 89785; Renilla reference signal, replicate 1 = 42493; Renilla reference signal, replicate 2 = 2619
Arl2 [DRSC14117] — firefly Hh reporter signal, replicate 1 = 61408; firefly Hh reporter signal, replicate 2 = 95472; Renilla reference signal, replicate 1 = 2327; Renilla reference signal, replicate 2 = 2800
CG42365 [DRSC04266] — firefly Hh reporter signal, replicate 1 = 1.02e5; firefly Hh reporter signal, replicate 2 = 55033; Renilla reference signal, replicate 1 = 2576; Renilla reference signal, replicate 2 = 4598
Muc91C [DRSC16297] — firefly Hh reporter signal, replicate 1 = 8.94e5; firefly Hh reporter signal, replicate 2 = 2.04e5; Renilla reference signal, replicate 1 = 46372; Renilla reference signal, replicate 2 = 5607
regucalcin [DRSC18908] — firefly Hh reporter signal, replicate 1 = 5.61e5; firefly Hh reporter signal, replicate 2 = 2.03e5; Renilla reference signal, replicate 1 = 31148; Renilla reference signal, replicate 2 = 4736
regucalcin [DRSC20366] — firefly Hh reporter signal, replicate 1 = 58658; firefly Hh reporter signal, replicate 2 = 2.05e5; Renilla reference signal, replicate 1 = 1652; Renilla reference signal, replicate 2 = 7565
hpRNA:CR32207 [DRSC09616] — firefly Hh reporter signal, replicate 1 = 3.09e5; Renilla reference signal, replicate 1 = 6539
cdi [DRSC16922] — firefly Hh reporter signal, replicate 1 = 1.46e5; firefly Hh reporter signal, replicate 2 = 62957; Renilla reference signal, replicate 1 = 5259; Renilla reference signal, replicate 2 = 2636
CG1946 [DRSC06804] — firefly Hh reporter signal, replicate 1 = 88514; firefly Hh reporter signal, replicate 2 = 63705; Renilla reference signal, replicate 1 = 1784; Renilla reference signal, replicate 2 = 4256
CG6231 [DRSC15997] — firefly Hh reporter signal, replicate 1 = 5.58e5; firefly Hh reporter signal, replicate 2 = 1.03e5; Renilla reference signal, replicate 1 = 28726; Renilla reference signal, replicate 2 = 2949
Ufsp1 [DRSC04958] — firefly Hh reporter signal, replicate 1 = 1.20e5; firefly Hh reporter signal, replicate 2 = 2.73e5; Renilla reference signal, replicate 1 = 3026; Renilla reference signal, replicate 2 = 11488

No new results follow: 3 of the entries above.
Nil [DRSC15953] — firefly Hh reporter signal, replicate 1 = 6.37e5; firefly Hh reporter signal, replicate 2 = 89785; Renilla reference signal, replicate 1 = 42493; Renilla reference signal, replicate 2 = 2619
Arl2 [DRSC14117] — firefly Hh reporter signal, replicate 1 = 61408; firefly Hh reporter signal, replicate 2 = 95472; Renilla reference signal, replicate 1 = 2327; Renilla reference signal, replicate 2 = 2800
CG42365 [DRSC04266] — firefly Hh reporter signal, replicate 1 = 1.02e5; firefly Hh reporter signal, replicate 2 = 55033; Renilla reference signal, replicate 1 = 2576; Renilla reference signal, replicate 2 = 4598

Further reagents:
yin [DRSC18854] — firefly Hh reporter signal, replicate 1 = 2.02e5; firefly Hh reporter signal, replicate 2 = 1.45e5; Renilla reference signal, replicate 1 = 4342; Renilla reference signal, replicate 2 = 4412
CG12540 [DRSC19471] — firefly Hh reporter signal, replicate 1 = 1.04e5; firefly Hh reporter signal, replicate 2 = 1.74e5; Renilla reference signal, replicate 1 = 3079; Renilla reference signal, replicate 2 = 7992
trol [DRSC17714] — firefly Hh reporter signal, replicate 1 = 5.61e5; firefly Hh reporter signal, replicate 2 = 2.32e5; Renilla reference signal, replicate 1 = 28688; Renilla reference signal, replicate 2 = 4976
trol [DRSC17718] — firefly Hh reporter signal, replicate 1 = 4.77e5; firefly Hh reporter signal, replicate 2 = 2.69e5; Renilla reference signal, replicate 1 = 20595; Renilla reference signal, replicate 2 = 5978
trol [DRSC18613] — firefly Hh reporter signal, replicate 1 = 85508; firefly Hh reporter signal, replicate 2 = 1.60e5; Renilla reference signal, replicate 1 = 3312; Renilla reference signal, replicate 2 = 5879
trol [DRSC18814] — firefly Hh reporter signal, replicate 1 = 80441; firefly Hh reporter signal, replicate 2 = 1.98e5; Renilla reference signal, replicate 1 = 2816; Renilla reference signal, replicate 2 = 7076
MED18 [DRSC18549] — firefly Hh reporter signal, replicate 1 = 91202; firefly Hh reporter signal, replicate 2 = 2.23e5; Renilla reference signal, replicate 1 = 2652; Renilla reference signal, replicate 2 = 8785
CG14312 [DRSC14791] — firefly Hh reporter signal, replicate 1 = 4.92e5; firefly Hh reporter signal, replicate 2 = 75376; Renilla reference signal, replicate 1 = 28317; Renilla reference signal, replicate 2 = 1673
mim [DRSC05013] — firefly Hh reporter signal, replicate 1 = 28160 (active); firefly Hh reporter signal, replicate 2 = 10948; Renilla reference signal, replicate 1 = 912; Renilla reference signal, replicate 2 = 1386
Sras [DRSC11287] — firefly Hh reporter signal, replicate 1 = 51259; firefly Hh reporter signal, replicate 2 = 52497; Renilla reference signal, replicate 1 = 5353; Renilla reference signal, replicate 2 = 3648
CG11570 [DRSC09844] — firefly Hh reporter signal, replicate 1 = 41265; firefly Hh reporter signal, replicate 2 = 48256; firefly Hh reporter signal, replicate 3 = 45906; Renilla reference signal, replicate 1 = 4677; Renilla reference signal, replicate 2 = 3446
ey [DRSC17173] — firefly Hh reporter signal, replicate 1 = 59417; firefly Hh reporter signal, replicate 2 = 1.50e5; Renilla reference signal, replicate 1 = 1440; Renilla reference signal, replicate 2 = 6641
TotB [DRSC15842] — firefly Hh reporter signal, replicate 1 = 5.64e5; firefly Hh reporter signal, replicate 2 = 89575; Renilla reference signal, replicate 1 = 29210; Renilla reference signal, replicate 2 = 2096
Trap1 [DRSC05019] — firefly Hh reporter signal, replicate 1 = 1.71e5; firefly Hh reporter signal, replicate 2 = 1.36e5; Renilla reference signal, replicate 1 = 6981; Renilla reference signal, replicate 2 = 5120
